# Earlier results in US20080064053A1, “Genotoxicity Testing” (priority 2003, published 2008).
# Settings: in vivo; cited from earlier work
smiles,measurement,value
Cc1cc(NS(=O)(=O)c2ccc(N)cc2)no1 [sulfamethoxazole],cancer data / carcinogenicity,positive
